Assay results from patent publication EP4755915A1.
No constants are given. Whether binding was seen depends on the method and setting. Some results given as binding are weak or reduced against the parent protein; the word gives no strength.

Chains of the proteins cited; added tags and fusions are not shown. Lines headed by an entry give the natural chain unless they say otherwise; changes in a name come on top.
UniProt P02708: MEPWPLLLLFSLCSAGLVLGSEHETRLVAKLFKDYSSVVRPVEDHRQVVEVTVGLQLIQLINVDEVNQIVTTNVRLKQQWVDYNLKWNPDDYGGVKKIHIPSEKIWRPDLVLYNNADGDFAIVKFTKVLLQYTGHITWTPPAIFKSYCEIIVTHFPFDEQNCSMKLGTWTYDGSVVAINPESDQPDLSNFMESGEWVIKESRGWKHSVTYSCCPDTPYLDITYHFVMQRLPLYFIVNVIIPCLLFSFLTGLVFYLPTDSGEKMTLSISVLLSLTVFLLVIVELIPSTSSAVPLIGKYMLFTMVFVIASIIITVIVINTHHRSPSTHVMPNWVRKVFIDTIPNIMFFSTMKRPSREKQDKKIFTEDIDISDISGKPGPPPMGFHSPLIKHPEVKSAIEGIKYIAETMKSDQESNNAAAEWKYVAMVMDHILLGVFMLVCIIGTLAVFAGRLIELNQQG
UniProt P11230: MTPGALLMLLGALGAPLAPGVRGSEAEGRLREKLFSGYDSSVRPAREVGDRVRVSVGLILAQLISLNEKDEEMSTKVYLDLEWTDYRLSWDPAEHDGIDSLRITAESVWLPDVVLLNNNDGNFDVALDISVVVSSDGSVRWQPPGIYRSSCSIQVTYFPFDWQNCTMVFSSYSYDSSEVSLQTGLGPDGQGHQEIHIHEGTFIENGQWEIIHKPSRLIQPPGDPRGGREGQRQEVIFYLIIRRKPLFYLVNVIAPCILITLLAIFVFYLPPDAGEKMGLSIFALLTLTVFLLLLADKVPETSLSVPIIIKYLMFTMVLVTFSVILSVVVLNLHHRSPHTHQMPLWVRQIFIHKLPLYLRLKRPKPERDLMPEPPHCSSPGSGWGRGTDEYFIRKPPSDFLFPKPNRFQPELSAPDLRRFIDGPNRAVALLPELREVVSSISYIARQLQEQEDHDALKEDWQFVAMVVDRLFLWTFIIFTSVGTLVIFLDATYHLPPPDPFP
UniProt Q07001: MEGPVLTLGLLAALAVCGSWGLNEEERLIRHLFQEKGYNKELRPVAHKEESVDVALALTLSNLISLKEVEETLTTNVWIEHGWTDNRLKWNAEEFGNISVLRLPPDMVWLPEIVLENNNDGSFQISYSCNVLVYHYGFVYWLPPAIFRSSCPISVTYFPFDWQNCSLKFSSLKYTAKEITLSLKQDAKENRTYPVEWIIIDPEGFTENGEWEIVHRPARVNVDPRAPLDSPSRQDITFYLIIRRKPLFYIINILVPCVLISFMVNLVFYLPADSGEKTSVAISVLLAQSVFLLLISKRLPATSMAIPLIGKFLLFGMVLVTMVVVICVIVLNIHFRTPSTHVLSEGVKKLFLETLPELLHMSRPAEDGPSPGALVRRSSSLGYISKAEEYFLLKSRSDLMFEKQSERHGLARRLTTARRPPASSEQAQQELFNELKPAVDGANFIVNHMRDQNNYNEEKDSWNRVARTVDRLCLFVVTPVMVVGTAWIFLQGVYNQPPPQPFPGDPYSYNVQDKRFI
UniProt P07510: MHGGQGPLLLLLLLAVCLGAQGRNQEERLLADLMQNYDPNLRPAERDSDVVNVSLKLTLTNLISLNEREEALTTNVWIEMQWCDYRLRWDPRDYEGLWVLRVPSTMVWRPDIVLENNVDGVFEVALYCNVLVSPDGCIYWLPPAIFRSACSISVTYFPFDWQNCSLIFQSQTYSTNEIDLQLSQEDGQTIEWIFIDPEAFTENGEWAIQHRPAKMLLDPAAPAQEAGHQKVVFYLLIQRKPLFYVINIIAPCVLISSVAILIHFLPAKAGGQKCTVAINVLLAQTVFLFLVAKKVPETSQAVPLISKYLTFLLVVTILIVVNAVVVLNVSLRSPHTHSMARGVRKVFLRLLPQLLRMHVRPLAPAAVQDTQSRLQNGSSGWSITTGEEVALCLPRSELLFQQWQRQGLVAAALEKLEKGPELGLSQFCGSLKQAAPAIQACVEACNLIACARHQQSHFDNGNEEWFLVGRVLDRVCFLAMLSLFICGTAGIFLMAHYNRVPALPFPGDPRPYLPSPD

Biological target: fetal acetylcholine receptor (AChR) on the cell membrane of TE671 cells (human) (UniProt P02708+P11230+Q07001+P07510)
Assay: flow cytometry competition on TE671 cells expressing fetal AChR; competitor biotinylated mAb637 at 8 µg/ml, detected with labelled streptavidin

B1: mAb637 C (antibody, human IgG2, kappa)
heavy: NFELTQPHSVSESPGKTVTISCTRSSGSIASNYVQWYQQRPGSSPTTVIYEDNQRPSGVPDRFSGSIDSSSNSASLTISGLKTEDEADYYCQSYDSNSGGRVFGGGTKLTVLASTKGPSVFPLAPCSRSTSESTAALGCLVKDYFPEPVTVSWNSGALTSGVHTFPAVLQSSGLYSLSSVVTVPSSNFGTQTYTCNVDHKPSNTKVDKTVERKCCVECPPCPAPPVAGPSVFLFPPKPKDTLMISRTPEVTCVVVDVSQEDPEVQFNWYVDGVEVHNAKTKPREEQFNSTYRVVSVLTVLHQDWLNGKEYKCKVSNKGLPSSIEKTISKAKGQPREPQVYTLPPSQEEMTKNQVSLTCLVKGFYPSDIAVEWESNGQPENYKTTPPVLDSDGSFFLYSRLTVDKSRWQEGNVFSCSVMHEALHNHYTQKSLSLSLGK
light: QVQLLESGGGLVKPGGSLRLSCAASGFKSTDYYMAWVRQAPGRGLEWVSFISGRVFTNYTASVRGRFTVFREDDNTSVYLQMSRLRVEDTAVYYCARLRGIFRGPLKPLEYYFDLWGRGTLVTVSSRTVAAPSVFIFPPSDEQLKSGTASVVCLLNNFYPREAKVQWKVDNALQSGNSQESVTEQDSKDSTYSLSSTLTLSKADYEKHKVYACEVTHQGLSSPVTKSFNRGEC
For B1, the binding was “binds”.
